Test results as given in the supplement of paper PMC10849652.
Some of the results follow.

The chains behind the UniProt entries cited, without tags or fusion partners. Where a name states a change or a piece, a line headed by the entry shows the natural chain unless it says otherwise.
UniProt Q9ULJ6: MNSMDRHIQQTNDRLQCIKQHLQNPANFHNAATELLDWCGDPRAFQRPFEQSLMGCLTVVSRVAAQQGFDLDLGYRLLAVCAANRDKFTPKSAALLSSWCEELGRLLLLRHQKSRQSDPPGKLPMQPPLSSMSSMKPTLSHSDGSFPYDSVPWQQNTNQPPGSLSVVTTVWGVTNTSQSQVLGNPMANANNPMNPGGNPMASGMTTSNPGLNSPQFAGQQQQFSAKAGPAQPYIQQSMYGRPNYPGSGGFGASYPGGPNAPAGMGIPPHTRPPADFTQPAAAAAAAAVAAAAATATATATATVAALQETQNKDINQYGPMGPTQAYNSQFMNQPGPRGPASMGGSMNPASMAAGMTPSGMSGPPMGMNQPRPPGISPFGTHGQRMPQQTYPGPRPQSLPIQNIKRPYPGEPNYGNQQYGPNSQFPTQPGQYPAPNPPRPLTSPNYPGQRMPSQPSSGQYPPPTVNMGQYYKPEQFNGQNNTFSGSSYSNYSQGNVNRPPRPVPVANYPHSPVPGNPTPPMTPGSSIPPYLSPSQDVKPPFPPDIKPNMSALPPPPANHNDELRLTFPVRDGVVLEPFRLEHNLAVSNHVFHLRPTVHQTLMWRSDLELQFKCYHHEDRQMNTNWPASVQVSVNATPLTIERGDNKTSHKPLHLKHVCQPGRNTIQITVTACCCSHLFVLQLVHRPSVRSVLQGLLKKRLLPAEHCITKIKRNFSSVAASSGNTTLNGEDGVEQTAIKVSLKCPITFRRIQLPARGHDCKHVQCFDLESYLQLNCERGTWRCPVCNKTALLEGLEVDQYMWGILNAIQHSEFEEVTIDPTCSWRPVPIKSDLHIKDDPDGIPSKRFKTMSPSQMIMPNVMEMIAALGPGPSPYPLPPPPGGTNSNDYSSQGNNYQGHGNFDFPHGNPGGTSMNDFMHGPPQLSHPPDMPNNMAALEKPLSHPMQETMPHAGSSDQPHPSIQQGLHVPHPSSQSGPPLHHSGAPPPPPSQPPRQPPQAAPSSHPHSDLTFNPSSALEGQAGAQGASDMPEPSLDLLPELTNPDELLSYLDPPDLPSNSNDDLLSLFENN
UniProt P62258: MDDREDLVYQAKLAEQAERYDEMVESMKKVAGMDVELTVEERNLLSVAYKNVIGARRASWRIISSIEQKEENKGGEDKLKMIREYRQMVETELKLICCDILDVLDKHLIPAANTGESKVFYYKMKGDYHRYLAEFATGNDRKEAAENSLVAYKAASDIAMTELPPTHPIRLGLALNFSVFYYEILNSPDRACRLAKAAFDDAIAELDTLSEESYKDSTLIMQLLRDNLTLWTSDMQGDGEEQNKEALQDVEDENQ
UniProt P37275: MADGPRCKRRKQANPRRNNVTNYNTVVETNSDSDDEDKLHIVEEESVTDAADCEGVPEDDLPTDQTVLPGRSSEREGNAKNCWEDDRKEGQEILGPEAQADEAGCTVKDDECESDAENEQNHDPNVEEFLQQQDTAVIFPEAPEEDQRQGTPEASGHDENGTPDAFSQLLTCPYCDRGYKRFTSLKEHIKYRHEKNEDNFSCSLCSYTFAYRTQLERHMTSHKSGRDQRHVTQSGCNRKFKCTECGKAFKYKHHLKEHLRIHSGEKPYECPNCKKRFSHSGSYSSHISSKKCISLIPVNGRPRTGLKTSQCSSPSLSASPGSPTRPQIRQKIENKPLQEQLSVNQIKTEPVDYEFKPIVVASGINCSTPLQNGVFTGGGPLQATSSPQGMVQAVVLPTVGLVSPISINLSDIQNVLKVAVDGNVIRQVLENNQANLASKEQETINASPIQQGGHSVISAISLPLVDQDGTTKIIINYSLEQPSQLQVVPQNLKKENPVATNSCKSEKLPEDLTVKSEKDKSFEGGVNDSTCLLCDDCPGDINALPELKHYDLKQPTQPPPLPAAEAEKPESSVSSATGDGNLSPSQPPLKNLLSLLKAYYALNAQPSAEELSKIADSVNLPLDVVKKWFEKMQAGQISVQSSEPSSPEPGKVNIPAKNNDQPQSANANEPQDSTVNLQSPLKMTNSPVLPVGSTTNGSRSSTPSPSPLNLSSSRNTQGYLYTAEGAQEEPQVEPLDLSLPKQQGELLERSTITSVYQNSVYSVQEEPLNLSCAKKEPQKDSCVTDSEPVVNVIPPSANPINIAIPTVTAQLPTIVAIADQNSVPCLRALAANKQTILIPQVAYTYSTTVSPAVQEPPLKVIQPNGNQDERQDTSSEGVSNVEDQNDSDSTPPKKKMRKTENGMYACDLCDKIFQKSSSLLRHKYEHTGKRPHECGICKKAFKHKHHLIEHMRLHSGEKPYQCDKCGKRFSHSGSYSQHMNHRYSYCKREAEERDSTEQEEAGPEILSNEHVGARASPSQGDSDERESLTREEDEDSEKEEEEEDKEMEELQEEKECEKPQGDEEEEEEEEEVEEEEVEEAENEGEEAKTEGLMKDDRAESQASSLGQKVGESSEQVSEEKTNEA
UniProt A4UGR9: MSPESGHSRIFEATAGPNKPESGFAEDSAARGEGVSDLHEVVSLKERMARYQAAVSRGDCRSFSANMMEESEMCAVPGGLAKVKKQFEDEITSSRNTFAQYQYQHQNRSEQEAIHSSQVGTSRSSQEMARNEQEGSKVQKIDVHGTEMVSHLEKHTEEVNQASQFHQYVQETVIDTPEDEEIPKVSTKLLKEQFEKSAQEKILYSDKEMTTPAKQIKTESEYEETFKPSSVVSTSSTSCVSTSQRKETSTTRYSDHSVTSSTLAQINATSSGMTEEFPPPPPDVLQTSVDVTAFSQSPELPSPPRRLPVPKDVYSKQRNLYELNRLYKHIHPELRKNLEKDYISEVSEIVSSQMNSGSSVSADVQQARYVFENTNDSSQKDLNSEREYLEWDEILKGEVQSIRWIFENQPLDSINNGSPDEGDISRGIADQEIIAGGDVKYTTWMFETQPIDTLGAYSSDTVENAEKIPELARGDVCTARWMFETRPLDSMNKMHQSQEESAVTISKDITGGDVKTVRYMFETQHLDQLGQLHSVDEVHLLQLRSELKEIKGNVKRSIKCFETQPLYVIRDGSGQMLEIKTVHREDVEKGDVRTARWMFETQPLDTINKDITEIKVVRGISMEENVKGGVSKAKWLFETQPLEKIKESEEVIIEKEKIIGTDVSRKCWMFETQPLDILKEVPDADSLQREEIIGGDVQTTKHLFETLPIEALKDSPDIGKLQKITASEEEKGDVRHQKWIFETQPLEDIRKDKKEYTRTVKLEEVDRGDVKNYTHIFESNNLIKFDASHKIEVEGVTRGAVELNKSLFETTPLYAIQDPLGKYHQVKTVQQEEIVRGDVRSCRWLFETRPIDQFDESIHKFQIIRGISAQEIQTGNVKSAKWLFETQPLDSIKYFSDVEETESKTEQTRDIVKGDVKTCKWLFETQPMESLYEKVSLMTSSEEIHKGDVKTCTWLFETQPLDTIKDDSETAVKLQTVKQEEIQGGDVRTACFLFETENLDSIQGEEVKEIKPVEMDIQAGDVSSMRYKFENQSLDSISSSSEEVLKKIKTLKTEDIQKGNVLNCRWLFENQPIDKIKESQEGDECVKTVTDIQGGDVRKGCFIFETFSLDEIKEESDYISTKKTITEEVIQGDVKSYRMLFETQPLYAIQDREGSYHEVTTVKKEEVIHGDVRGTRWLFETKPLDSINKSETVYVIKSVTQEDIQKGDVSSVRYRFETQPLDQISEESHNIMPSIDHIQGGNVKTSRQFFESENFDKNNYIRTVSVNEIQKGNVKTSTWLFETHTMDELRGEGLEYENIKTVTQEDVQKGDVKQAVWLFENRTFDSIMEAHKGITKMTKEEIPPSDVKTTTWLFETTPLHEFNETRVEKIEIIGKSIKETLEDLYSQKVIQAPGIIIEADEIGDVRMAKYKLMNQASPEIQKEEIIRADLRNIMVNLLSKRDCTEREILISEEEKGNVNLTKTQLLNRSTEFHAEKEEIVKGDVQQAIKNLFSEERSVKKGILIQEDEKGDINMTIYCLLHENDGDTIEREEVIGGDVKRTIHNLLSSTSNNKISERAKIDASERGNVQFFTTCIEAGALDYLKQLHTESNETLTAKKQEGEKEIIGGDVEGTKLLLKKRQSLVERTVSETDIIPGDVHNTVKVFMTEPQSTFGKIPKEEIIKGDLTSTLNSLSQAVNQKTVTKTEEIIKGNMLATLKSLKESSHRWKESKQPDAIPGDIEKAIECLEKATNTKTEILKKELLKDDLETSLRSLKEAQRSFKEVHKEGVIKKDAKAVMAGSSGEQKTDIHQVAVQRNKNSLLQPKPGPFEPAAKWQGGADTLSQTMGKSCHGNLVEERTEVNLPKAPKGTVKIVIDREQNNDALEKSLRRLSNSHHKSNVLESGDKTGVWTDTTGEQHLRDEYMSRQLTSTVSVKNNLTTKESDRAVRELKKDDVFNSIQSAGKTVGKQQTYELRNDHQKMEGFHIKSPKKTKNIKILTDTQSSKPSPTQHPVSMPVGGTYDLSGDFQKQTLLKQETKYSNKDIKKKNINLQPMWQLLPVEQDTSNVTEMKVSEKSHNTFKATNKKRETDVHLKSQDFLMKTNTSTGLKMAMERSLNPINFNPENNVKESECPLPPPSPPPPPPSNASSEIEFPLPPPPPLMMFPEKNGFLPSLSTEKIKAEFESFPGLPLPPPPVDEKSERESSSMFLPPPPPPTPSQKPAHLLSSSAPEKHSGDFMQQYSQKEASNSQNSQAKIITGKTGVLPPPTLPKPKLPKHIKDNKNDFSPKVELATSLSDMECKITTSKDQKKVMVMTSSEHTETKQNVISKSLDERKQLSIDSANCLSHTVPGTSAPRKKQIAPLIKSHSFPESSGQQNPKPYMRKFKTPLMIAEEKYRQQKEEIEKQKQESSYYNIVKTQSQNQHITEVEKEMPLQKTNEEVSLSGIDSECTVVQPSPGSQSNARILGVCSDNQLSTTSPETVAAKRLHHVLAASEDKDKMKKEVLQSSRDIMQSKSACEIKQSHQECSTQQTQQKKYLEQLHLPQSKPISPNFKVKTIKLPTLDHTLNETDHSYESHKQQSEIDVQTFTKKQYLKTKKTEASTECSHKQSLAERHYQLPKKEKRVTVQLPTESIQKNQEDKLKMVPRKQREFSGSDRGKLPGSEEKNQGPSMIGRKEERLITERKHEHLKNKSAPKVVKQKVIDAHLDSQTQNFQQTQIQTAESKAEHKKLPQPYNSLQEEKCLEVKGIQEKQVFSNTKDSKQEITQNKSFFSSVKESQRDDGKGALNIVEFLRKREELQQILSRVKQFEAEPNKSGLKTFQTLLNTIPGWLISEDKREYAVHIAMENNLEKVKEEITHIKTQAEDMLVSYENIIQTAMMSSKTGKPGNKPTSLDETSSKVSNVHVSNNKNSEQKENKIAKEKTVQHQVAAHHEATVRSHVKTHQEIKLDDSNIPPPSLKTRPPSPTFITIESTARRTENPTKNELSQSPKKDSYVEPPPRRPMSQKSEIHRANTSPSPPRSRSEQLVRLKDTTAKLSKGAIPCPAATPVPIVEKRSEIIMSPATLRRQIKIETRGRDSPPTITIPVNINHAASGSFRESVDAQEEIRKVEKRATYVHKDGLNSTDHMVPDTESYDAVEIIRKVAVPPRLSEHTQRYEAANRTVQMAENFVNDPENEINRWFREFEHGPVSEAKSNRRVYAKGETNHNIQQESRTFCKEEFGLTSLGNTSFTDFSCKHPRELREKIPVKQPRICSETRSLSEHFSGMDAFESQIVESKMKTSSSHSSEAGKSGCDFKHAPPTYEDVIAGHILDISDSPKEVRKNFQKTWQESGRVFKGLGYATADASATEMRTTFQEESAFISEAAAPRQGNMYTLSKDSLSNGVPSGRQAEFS
UniProt Q5VVQ6: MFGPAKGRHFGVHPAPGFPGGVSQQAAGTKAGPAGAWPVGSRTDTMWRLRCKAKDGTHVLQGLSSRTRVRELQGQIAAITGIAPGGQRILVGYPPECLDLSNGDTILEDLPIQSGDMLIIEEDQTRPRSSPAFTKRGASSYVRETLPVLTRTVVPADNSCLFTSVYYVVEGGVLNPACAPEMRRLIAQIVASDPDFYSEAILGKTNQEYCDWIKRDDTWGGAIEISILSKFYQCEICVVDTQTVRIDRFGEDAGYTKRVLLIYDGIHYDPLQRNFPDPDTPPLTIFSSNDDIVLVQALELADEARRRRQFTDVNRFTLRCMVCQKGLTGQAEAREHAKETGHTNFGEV
UniProt Q8N4Q0: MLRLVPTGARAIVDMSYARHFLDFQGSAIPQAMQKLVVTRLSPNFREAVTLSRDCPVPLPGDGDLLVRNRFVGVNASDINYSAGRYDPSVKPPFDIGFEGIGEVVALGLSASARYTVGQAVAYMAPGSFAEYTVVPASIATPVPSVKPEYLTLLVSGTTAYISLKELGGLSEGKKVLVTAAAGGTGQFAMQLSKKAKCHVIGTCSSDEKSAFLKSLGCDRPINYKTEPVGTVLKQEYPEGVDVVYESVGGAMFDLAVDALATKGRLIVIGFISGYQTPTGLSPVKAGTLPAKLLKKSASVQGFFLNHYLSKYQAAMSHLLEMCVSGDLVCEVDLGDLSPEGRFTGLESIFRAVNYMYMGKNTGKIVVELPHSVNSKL

Columns and labels:
Experiment in all cases: log2 fold change, soluble protein after heating vs DMSO (PISA); higher = thermal stabilisation; K562 cells, 10 uM, 30 min; active = over 0.2 and 3.5 SD of the protein, either way, in both replicates (recomputed)
saracatinib = compound: CN1CCN(CCOc2cc(OC3CCOCC3)c3c(Nc4c(Cl)ccc5c4OCO5)ncnc3c2)CC1 [saracatinib]
Procedure, shortened: (§1)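 Soluble protein was defined as the supernatant after 21,000xg for 90 min. It came from K562 cells at 2×10^6 cells/mL given 10 μM compound for 30 min, heated in aliquots for 3 min across 48°C-58°C, pooled, and extracted in PBS with 0.5% NP-40 at 4°C, and was quantified by TMTpro 16plex LC-MS/MS with equalised channel sums. Thermal stability against control samples, from duplicates, is reported as log2 fold change.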

sotrastaurin = compound: CN1CCN(c2nc(C3=C(c4c[nH]c5ccccc45)C(=O)NC3=O)c3ccccc3n2)CC1 [sotrastaurin]
Procedure, shortened: as §1

alvocidib = compound: CN1CC[C@H](c2c(O)cc(O)c3c(=O)cc(-c4ccccc4Cl)oc23)[C@H](O)C1 [alvocidib]
Procedure, shortened: as §1

Tubastatin A = compound: CN1CCc2c(c3ccccc3n2Cc2ccc(C(=O)NO)cc2)C1 [Tubastatin A]
Procedure, shortened: as §1

[1] = compound: CNC(=O)C1=CC=CC=C1NC2=NC(=NC=C2Cl)NC3=C(C=C(C=C3)N4CCOCC4)OC
Procedure, shortened: as §1

defactinib = compound: CNC(=O)c1ccc(Nc2ncc(C(F)(F)F)c(NCc3nccnc3N(C)S(C)(=O)=O)n2)cc1 [defactinib]
Procedure, shortened: as §1

rucaparib = compound: CNCc1ccc(-c2[nH]c3cc(F)cc4c3c2CCNC4=O)cc1 [rucaparib]
Procedure, shortened: as §1

[2] = compound: CNc1nc(-c2ccc3c(N)n[nH]c3c2)cc(N2C[C@@H](C(=O)NC3CCCCC3)CC[C@H]2C)n1
Procedure, shortened: as §1

encorafenib = compound: COC(=O)N[C@@H](C)CNc1nccc(-c2cn(C(C)C)nc2-c2cc(Cl)cc(NS(C)(=O)=O)c2F)n1 [encorafenib]
Procedure, shortened: as §1

[3] = compound: COC(=O)[C@H](CCSC)NC(=O)C1=C(C=C(C=C1)NC[C@H](CS)N)C2=CC=CC=C2
Procedure, shortened: as §1

[4] = compound: COC1=CC=C(C=C1)CN2C=CC3=C2C=C(C=C3)C(=O)NO
Procedure, shortened: as §1

filanesib = compound: CON(C)C(=O)N1N=C(c2cc(F)ccc2F)S[C@@]1(CCCN)c1ccccc1 [filanesib]
Procedure, shortened: as §1

zotarolimus = compound: CO[C@H]1C[C@@H]2CC[C@@H](C)[C@@](O)(O2)C(=O)C(=O)N2CCCC[C@H]2C(=O)O[C@H]([C@H](C)C[C@@H]2CC[C@H](n3cnnn3)[C@H](OC)C2)CC(=O)[C@H](C)/C=C(\C)[C@@H](O)[C@@H](OC)C(=O)[C@H](C)C[C@H](C)/C=C/C=C/C=C/1C [zotarolimus]
Procedure, shortened: as §1

idasanutlin = compound: COc1cc(C(=O)O)ccc1NC(=O)[C@@H]1N[C@@H](CC(C)(C)C)[C@](C#N)(c2ccc(Cl)cc2F)[C@H]1c1cccc(Cl)c1F [idasanutlin]
Procedure, shortened: as §1

alisertib = compound: COc1cc(Nc2ncc3c(n2)-c2ccc(Cl)cc2C(c2c(F)cccc2OC)=NC3)ccc1C(=O)O [alisertib]
Procedure, shortened: as §1

[5] = compound: COc1cc2nc(-c3cc(F)ccc3O)nc(N[C@@H]3CNC[C@H]3C(C)(C)O)c2cc1OC
Procedure, shortened: as §1

gefitinib = compound: COc1cc2ncnc(Nc3ccc(F)c(Cl)c3)c2cc1OCCCN1CCOCC1 [gefitinib]
Procedure, shortened: as §1

[6] = compound: COc1cccc2cc(-c3nc([C@H]4CC[C@H](C(=O)O)CC4)n4ncnc(N)c34)[nH]c12
Procedure, shortened: as §1

lapatinib = compound: CS(=O)(=O)CCNCc1ccc(-c2ccc3ncnc(Nc4ccc(OCc5cccc(F)c5)c(Cl)c4)c3c2)o1 [lapatinib]
Procedure, shortened: as §1

pictilisib = compound: CS(=O)(=O)N1CCN(Cc2cc3nc(-c4cccc5[nH]ncc45)nc(N4CCOCC4)c3s2)CC1 [pictilisib]
Procedure, shortened: as §1

Measured: log2 fold change

ZFYVE19 (UniProt Q96K21)
inactive: saracatinib 0.079 | sotrastaurin 0.039 | alvocidib 0.013 | Tubastatin A -0.012 | [1] -0.037 | defactinib 0.037 | rucaparib -0.001 | [2] -0.048 | encorafenib -0.011 | [3] 0.071 | [4] -0.084 | filanesib 0.069 | zotarolimus -0.061 | idasanutlin -0.009 | alisertib -0.067 | [5] 0.007 | gefitinib 0.031 | [6] -0.001 | lapatinib 0.054 | pictilisib 0.039

XXYLT1 (UniProt Q8NBI6)
inactive: saracatinib -0.056 | sotrastaurin -0.038 | alvocidib 0.006 | Tubastatin A -0.012 | [1] 0.034 | defactinib -0.001 | rucaparib -0.078 | [2] -0.014 | encorafenib 0.052 | [3] -0.019 | [4] -0.021 | filanesib -0.042 | zotarolimus 0 | idasanutlin -0.063 | alisertib -0.007 | [5] -0.014 | gefitinib -0.002 | [6] 0.131 | lapatinib 0.059 | pictilisib 0.008

ZMIZ1 (UniProt Q9ULJ6)
inactive: saracatinib 0.031 | sotrastaurin -0.002 | alvocidib 0.002 | Tubastatin A -0.001 | [1] -0.04 | defactinib -0.055 | rucaparib -0.1 | [2] -0.023 | encorafenib 0.016 | [3] 0.021 | [4] -0.009 | filanesib -0.003 | zotarolimus -0.037 | idasanutlin -0.048 | alisertib -0.031 | [5] 0.069 | gefitinib 0.125 | [6] 0.063 | lapatinib -0.021 | pictilisib 0.04

YKT6 (UniProt O15498)
inactive: saracatinib 0.029 | sotrastaurin 0.033 | alvocidib 0.025 | Tubastatin A -0.051 | [1] 0.001 | defactinib 0 | rucaparib -0.041 | [2] 0.009 | encorafenib -0.006 | [3] -0.004 | [4] -0.025 | filanesib 0.007 | zotarolimus 0.016 | idasanutlin 0.023 | alisertib -0.042 | [5] 0.029 | gefitinib 0.005 | [6] 0.027 | lapatinib -0.022 | pictilisib 0.02

XPO7 (UniProt E7ESC6)
inactive: saracatinib 0.043 | sotrastaurin -0.001 | alvocidib -0.083 | Tubastatin A -0.073 | [1] -0.001 | defactinib -0.071 | rucaparib -0.022 | [2] -0.024 | encorafenib 0.014 | [3] -0.016 | [4] 0.034 | filanesib -0.077 | zotarolimus 0.009 | idasanutlin -0.088 | alisertib -0.067 | [5] -0.003 | gefitinib 0.004 | [6] 0.019 | lapatinib 0.014 | pictilisib 0.023

ZC3H4 (UniProt Q9UPT8)
inactive: saracatinib -0.025 | sotrastaurin 0.043 | alvocidib 0.227 | Tubastatin A 0.057 | [1] -0.015 | defactinib 0.216 | rucaparib 0.267 | [2] 0.042 | encorafenib 0.042 | [3] 0 | [4] -0.06 | filanesib 0.276 | zotarolimus -0.052 | idasanutlin 0.117 | alisertib -0.121 | [5] -0.011 | gefitinib -0.029 | [6] -0.139 | lapatinib 0.205 | pictilisib 0.03

YWHAE (UniProt P62258)
inactive: saracatinib 0.04 | sotrastaurin 0.016 | alvocidib 0 | Tubastatin A -0.03 | [1] -0.033 | defactinib -0.015 | rucaparib -0.033 | [2] -0.04 | encorafenib -0.015 | [3] 0.031 | [4] -0.023 | filanesib -0.026 | zotarolimus -0.013 | idasanutlin -0.006 | alisertib -0.073 | [5] 0.013 | gefitinib 0.005 | [6] 0.033 | lapatinib -0.023 | pictilisib 0.014

ZEB1 isoform 2 (UniProt P37275)
inactive: saracatinib 0.066 | sotrastaurin 0.064 | alvocidib -0.049 | Tubastatin A 0.043 | [1] -0.14 | defactinib -0.088 | rucaparib -0.101 | [2] -0.138 | encorafenib -0.023 | [3] 0.096 | [4] -0.069 | filanesib -0.24 | zotarolimus -0.004 | idasanutlin 0.018 | alisertib -0.088 | [5] -0.03 | gefitinib 0.026 | [6] -0.022 | lapatinib -0.015 | pictilisib -0.159

ZFR (UniProt Q96KR1)
inactive: saracatinib -0.009 | sotrastaurin 0.092 | alvocidib 0.42 | Tubastatin A 0.039 | [1] 0.026 | defactinib 0.332 | rucaparib 0.077 | [2] -0.11 | encorafenib 0.063 | [3] 0.031 | [4] 0.071 | filanesib 0.307 | zotarolimus -0.09 | alisertib -0.038 | gefitinib -0.026 | [6] -0.03 | pictilisib 0.02

ZDHHC20 (UniProt Q5W0Z9)
inactive: saracatinib -0.045 | sotrastaurin 0.015 | Tubastatin A 0.02 | [1] 0 | defactinib -0.231 | rucaparib 0.115 | [2] 0.121 | encorafenib -0.058 | [3] 0.028 | [4] -0.034 | filanesib 0.008 | zotarolimus -0.15 | idasanutlin -0.014 | alisertib -0.052 | [5] -0.086 | gefitinib -0.067 | [6] 0.11 | lapatinib 0.063 | pictilisib 0.066

ZFP91 (UniProt Q96JP5)
inactive: saracatinib 0.036 | sotrastaurin 0.105 | Tubastatin A 0.077 | [1] -0.016 | defactinib 0.054 | rucaparib 0.113 | [2] -0.007 | encorafenib 0.038 | [3] 0.064 | [4] -0.076 | filanesib 0.183 | zotarolimus -0.028 | idasanutlin 0.029 | alisertib -0.013 | [5] -0.095 | gefitinib 0.02 | [6] -0.042 | lapatinib 0.173 | pictilisib -0.07

ZNF148 (UniProt Q9UQR1)
inactive: saracatinib -0.038 | sotrastaurin -0.318 | alvocidib -0.018 | Tubastatin A -0.205 | [1] 0.145 | [2] 0.087 | [4] -0.122 | filanesib -0.139 | zotarolimus 0.026 | idasanutlin -0.213 | alisertib -0.073 | [5] -0.009 | gefitinib 0.157 | [6] -0.096 | lapatinib -0.002 | pictilisib 0.176

XIRP2 isoform 8 (UniProt A4UGR9)
inactive: saracatinib 0.003 | sotrastaurin 0.196 | alvocidib 0.203 | Tubastatin A -0.071 | [1] -0.152 | rucaparib 0.006 | [2] -0.04 | encorafenib -0.034 | filanesib 0.07 | zotarolimus 0.009 | idasanutlin -0.061 | alisertib 0.03 | [5] 0.076 | gefitinib 0.001 | [6] 0.034 | lapatinib -0.058 | pictilisib 0.07

YOD1 (UniProt Q5VVQ6)
inactive: saracatinib -0.034 | sotrastaurin 0.034 | Tubastatin A 0.072 | [1] 0.011 | defactinib -0.103 | rucaparib -0.041 | [2] 0.011 | encorafenib 0.02 | [3] -0.016 | [4] 0.037 | filanesib -0.067 | zotarolimus 0.05 | idasanutlin -0.038 | alisertib 0.19 | [5] 0.018 | gefitinib 0.006 | [6] 0.011 | lapatinib 0.01 | pictilisib -0.001

ZFYVE1 (UniProt Q9HBF4)
inactive: saracatinib 0.037 | sotrastaurin 0.134 | alvocidib -0.036 | Tubastatin A 0.132 | [1] 0.063 | defactinib -0.069 | rucaparib -0.118 | [2] -0.06 | encorafenib -0.039 | [3] 0.059 | [4] 0.037 | filanesib 0.099 | zotarolimus -0.016 | idasanutlin -0.133 | alisertib -0.048 | [5] 0.206 | gefitinib 0.014 | [6] 0.067 | lapatinib -0.141 | pictilisib 0.043

XRCC3 (UniProt O43542)
inactive: saracatinib 0.156 | sotrastaurin -0.005 | alvocidib -0.055 | Tubastatin A -0.036 | [1] -0.117 | defactinib -0.03 | rucaparib 0.063 | [2] 0.003 | encorafenib -0.011 | [3] -0.089 | [4] 0.075 | filanesib -0.056 | zotarolimus -0.031 | idasanutlin 0.019 | alisertib -0.069 | [5] 0.044 | gefitinib 0.053 | [6] -0.021 | lapatinib -0.024 | pictilisib -0.177

ZADH2 (UniProt Q8N4Q0)
inactive: saracatinib 0.005 | sotrastaurin -0.015 | Tubastatin A -0.007 | [1] -0.051 | defactinib 0.025 | rucaparib -0.071 | [2] -0.011 | encorafenib 0.045 | [3] 0.052 | [4] 0.008 | filanesib 0.065 | zotarolimus 0.07 | idasanutlin -0.235 | alisertib 0.021 | [5] 0.045 | gefitinib -0.029 | [6] -0.059 | lapatinib -0.049 | pictilisib 0.14

Copied from the entries so far (two entries):
ZFYVE1 (UniProt Q9HBF4)
inactive: saracatinib 0.037 | sotrastaurin 0.134 | alvocidib -0.036 | Tubastatin A 0.132 | [1] 0.063 | defactinib -0.069 | rucaparib -0.118 | [2] -0.06 | encorafenib -0.039 | [3] 0.059 | [4] 0.037 | filanesib 0.099 | zotarolimus -0.016 | idasanutlin -0.133 | alisertib -0.048 | [5] 0.206 | gefitinib 0.014 | [6] 0.067 | lapatinib -0.141 | pictilisib 0.043

XRCC3 (UniProt O43542)
inactive: saracatinib 0.156 | sotrastaurin -0.005 | alvocidib -0.055 | Tubastatin A -0.036 | [1] -0.117 | defactinib -0.03 | rucaparib 0.063 | [2] 0.003 | encorafenib -0.011 | [3] -0.089 | [4] 0.075 | filanesib -0.056 | zotarolimus -0.031 | idasanutlin 0.019 | alisertib -0.069 | [5] 0.044 | gefitinib 0.053 | [6] -0.021 | lapatinib -0.024 | pictilisib -0.177
